In the supplement of paper PMC10849652:
The other results are listed elsewhere or left out.

Sequences of proteins named here, by UniProt entry; tags and fusion partners are left off. A change or cut given only in a name is not applied to a line headed by its entry.
UniProt Q15061: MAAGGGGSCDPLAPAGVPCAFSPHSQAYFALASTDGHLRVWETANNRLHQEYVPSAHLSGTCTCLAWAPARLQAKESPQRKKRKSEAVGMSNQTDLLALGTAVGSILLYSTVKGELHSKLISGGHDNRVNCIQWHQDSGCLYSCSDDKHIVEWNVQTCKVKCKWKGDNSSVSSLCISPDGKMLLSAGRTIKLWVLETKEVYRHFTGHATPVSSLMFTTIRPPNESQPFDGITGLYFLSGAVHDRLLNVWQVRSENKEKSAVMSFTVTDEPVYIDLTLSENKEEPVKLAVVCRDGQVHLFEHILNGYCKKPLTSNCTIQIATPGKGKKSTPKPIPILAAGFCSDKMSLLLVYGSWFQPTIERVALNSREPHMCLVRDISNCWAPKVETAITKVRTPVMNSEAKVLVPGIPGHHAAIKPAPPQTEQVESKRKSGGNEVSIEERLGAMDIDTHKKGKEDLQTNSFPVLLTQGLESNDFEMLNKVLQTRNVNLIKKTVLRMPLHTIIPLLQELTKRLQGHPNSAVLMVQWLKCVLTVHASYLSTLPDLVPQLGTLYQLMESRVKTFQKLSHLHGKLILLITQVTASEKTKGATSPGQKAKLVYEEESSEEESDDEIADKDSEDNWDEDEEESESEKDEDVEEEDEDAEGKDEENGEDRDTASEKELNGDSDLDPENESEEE
UniProt Q86Y07: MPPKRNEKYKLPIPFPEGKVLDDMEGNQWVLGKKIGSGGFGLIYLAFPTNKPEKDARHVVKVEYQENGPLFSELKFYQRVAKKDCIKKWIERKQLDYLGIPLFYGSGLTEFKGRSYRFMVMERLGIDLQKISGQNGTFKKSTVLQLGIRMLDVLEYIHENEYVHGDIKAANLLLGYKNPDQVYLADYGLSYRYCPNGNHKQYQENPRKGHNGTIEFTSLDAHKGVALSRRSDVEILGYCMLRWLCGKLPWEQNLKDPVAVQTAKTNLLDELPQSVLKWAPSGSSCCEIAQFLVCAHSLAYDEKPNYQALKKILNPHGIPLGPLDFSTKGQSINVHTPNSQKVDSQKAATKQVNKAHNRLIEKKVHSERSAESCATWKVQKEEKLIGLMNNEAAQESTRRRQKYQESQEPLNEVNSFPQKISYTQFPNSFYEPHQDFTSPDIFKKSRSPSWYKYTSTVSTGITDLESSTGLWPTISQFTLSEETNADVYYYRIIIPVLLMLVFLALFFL
UniProt O00401, whole entry, looked up: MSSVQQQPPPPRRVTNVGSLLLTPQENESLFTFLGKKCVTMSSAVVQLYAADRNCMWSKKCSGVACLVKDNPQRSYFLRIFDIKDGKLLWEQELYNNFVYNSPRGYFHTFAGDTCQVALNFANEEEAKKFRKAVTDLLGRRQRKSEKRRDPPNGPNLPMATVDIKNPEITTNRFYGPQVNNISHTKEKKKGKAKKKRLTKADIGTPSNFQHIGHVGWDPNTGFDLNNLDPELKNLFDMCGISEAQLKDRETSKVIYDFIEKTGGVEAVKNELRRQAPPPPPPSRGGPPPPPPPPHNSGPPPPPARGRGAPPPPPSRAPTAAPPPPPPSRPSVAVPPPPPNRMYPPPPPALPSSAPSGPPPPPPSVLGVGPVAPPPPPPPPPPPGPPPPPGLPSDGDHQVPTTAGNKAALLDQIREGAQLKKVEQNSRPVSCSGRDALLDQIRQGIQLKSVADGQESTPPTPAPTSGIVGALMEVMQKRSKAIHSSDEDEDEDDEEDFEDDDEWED
UniProt Q8N3P4: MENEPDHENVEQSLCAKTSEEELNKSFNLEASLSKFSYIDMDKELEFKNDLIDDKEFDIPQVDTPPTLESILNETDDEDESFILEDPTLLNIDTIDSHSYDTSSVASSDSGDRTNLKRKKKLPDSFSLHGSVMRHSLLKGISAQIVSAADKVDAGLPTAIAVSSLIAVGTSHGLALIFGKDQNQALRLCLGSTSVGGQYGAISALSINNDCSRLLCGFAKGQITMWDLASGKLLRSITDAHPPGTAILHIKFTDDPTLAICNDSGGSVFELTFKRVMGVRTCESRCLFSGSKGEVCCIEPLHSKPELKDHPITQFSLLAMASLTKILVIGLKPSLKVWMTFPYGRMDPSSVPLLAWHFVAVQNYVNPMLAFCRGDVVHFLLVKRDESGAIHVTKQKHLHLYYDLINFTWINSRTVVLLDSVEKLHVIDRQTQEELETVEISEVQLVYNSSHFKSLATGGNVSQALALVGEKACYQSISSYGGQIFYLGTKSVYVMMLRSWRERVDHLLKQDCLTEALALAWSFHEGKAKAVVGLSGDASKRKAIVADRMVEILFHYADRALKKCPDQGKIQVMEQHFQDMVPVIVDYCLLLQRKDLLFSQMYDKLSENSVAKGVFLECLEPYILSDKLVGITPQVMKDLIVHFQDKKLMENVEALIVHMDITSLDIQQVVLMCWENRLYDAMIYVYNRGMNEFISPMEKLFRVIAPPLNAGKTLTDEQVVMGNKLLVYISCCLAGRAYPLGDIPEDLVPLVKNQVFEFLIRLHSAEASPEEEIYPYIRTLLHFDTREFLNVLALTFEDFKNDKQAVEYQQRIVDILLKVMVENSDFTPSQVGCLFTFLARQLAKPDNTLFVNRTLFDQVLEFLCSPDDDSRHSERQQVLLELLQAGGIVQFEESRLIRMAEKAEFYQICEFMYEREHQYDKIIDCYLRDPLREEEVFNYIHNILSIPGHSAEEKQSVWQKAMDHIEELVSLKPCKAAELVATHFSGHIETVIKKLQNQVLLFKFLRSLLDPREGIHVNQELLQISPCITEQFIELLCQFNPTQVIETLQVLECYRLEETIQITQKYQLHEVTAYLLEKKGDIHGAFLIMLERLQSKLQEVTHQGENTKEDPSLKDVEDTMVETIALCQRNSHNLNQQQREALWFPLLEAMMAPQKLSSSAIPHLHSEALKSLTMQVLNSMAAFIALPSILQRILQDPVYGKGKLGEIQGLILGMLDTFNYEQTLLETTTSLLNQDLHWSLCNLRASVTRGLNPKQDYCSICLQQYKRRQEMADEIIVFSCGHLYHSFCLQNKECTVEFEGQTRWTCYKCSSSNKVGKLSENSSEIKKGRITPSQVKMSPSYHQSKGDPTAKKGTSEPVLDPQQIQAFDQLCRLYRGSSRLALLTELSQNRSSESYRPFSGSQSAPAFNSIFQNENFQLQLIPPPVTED
UniProt Q96JG6: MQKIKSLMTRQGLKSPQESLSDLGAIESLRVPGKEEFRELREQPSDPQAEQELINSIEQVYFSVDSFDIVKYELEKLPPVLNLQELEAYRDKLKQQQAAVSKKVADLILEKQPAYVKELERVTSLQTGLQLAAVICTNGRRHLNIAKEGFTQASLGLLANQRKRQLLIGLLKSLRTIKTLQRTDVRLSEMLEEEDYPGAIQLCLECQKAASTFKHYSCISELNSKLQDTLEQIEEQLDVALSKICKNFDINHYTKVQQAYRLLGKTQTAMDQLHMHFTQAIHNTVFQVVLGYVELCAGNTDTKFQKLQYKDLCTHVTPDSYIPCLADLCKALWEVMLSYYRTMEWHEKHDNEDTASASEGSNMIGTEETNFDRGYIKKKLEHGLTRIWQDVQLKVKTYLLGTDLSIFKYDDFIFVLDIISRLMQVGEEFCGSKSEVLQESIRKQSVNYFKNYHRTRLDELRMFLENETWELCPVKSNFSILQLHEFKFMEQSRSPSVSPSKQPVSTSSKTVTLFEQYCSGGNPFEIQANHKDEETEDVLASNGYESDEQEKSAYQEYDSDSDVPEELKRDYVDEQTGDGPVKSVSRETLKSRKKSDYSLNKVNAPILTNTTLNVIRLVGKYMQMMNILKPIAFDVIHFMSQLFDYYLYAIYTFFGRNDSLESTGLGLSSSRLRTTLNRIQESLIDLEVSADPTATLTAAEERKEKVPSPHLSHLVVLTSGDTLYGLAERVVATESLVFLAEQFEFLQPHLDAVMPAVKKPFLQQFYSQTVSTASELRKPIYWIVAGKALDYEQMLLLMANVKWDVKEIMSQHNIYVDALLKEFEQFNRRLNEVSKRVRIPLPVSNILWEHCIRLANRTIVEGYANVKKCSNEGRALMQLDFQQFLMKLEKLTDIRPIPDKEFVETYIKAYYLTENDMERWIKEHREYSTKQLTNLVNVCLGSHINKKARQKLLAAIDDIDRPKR
UniProt P45880: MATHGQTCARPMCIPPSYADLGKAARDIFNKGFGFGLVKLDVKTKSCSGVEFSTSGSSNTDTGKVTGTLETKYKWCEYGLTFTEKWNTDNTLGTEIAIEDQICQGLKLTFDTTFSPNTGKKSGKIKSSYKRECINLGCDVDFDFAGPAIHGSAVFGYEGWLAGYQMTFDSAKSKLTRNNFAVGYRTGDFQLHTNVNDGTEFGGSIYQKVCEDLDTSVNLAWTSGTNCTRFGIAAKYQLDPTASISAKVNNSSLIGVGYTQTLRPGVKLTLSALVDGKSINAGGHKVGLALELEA
UniProt P57081: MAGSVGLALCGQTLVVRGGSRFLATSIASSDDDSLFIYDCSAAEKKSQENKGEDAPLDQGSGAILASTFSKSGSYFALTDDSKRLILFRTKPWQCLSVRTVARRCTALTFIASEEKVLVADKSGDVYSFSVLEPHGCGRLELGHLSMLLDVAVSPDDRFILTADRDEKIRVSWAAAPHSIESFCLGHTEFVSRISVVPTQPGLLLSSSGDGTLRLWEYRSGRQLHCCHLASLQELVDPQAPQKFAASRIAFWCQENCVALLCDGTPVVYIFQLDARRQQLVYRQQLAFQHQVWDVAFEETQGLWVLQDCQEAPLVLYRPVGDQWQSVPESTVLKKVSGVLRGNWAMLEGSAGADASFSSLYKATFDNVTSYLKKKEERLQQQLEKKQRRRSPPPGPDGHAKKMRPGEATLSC
UniProt O95785: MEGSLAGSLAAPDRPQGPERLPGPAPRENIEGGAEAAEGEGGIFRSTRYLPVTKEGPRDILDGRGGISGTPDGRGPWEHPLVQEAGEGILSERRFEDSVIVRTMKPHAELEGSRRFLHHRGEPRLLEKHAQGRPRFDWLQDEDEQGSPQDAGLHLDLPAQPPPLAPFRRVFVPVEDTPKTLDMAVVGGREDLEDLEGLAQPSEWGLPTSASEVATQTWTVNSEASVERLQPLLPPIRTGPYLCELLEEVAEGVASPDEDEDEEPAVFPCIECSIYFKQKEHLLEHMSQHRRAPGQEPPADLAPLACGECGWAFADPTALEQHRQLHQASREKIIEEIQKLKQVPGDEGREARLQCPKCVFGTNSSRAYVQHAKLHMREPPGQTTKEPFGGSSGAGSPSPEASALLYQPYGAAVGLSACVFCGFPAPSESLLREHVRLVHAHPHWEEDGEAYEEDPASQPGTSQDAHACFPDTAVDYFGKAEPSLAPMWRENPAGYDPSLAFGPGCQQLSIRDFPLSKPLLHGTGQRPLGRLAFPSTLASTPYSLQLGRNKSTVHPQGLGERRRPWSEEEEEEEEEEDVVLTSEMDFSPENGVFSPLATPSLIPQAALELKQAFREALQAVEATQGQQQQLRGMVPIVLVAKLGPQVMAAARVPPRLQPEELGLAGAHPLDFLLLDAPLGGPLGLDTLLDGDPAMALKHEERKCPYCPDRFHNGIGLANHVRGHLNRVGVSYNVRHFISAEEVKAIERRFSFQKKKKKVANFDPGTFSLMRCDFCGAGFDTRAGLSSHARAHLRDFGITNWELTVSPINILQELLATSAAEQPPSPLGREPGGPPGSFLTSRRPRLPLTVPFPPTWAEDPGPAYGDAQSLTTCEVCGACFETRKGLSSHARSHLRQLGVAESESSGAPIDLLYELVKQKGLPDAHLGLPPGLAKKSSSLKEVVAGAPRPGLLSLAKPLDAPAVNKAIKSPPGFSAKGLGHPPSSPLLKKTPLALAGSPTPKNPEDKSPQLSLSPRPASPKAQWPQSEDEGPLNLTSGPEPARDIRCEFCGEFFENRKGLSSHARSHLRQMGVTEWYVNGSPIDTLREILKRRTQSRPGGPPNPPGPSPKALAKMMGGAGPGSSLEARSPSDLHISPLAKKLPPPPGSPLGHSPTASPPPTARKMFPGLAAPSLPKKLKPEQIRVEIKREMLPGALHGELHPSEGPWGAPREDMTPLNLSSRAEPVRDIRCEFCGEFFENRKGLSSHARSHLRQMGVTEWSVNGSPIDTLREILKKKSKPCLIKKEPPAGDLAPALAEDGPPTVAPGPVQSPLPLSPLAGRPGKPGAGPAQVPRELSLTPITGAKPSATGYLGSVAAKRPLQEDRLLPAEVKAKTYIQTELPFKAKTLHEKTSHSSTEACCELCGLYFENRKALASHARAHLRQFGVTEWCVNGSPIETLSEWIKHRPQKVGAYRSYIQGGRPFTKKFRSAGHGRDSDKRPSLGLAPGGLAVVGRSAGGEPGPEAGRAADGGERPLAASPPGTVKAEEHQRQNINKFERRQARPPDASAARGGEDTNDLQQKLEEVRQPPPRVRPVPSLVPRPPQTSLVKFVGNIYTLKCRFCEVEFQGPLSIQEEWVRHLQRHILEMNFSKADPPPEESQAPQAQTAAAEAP

Columns and labels:
Assay in all cases: log2 fold change, soluble protein after heating vs DMSO (PISA); higher = thermal stabilisation; K562 cells, 10 uM, 30 min; active = over 0.2 and 3.5 SD of the protein, either way, in both replicates (recomputed)
[1] = compound: COC1=CC=C(C=C1)CN2C=CC3=C2C=C(C=C3)C(=O)NO
Outline: (§1)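 Quantification of soluble protein used TMTpro 16plex LC-MS/MS, with channel sums equalised. Samples were the supernatant after 21,000xg for 90 min of pooled aliquots from K562 cells (2×10^6 cells/mL) treated with 10 μM compound for 30 min, heated for 3 min over 48°C-58°C, and extracted in PBS with 0.5% NP-40 at 4°C. Values, from duplicates, describe thermal stability against control samples on a log2 fold-change scale.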

[2] = compound: CON(C)C(=O)N1N=C(c2cc(F)ccc2F)S[C@@]1(CCCN)c1ccccc1 [filanesib]
Outline: as §1

[3] = compound: CO[C@H]1C[C@@H]2CC[C@@H](C)[C@@](O)(O2)C(=O)C(=O)N2CCCC[C@H]2C(=O)O[C@H]([C@H](C)C[C@@H]2CC[C@H](n3cnnn3)[C@H](OC)C2)CC(=O)[C@H](C)/C=C(\C)[C@@H](O)[C@@H](OC)C(=O)[C@H](C)C[C@H](C)/C=C/C=C/C=C/1C [zotarolimus]
Outline: as §1

[4] = compound: COc1cc(C(=O)O)ccc1NC(=O)[C@@H]1N[C@@H](CC(C)(C)C)[C@](C#N)(c2ccc(Cl)cc2F)[C@H]1c1cccc(Cl)c1F [idasanutlin]
Outline: as §1

[5] = compound: COc1cc(Nc2ncc3c(n2)-c2ccc(Cl)cc2C(c2c(F)cccc2OC)=NC3)ccc1C(=O)O [alisertib]
Outline: as §1

[6] = compound: COc1cc2nc(-c3cc(F)ccc3O)nc(N[C@@H]3CNC[C@H]3C(C)(C)O)c2cc1OC
Outline: as §1

[7] = compound: COc1cc2ncnc(Nc3ccc(F)c(Cl)c3)c2cc1OCCCN1CCOCC1 [gefitinib]
Outline: as §1

[8] = compound: COc1cccc2cc(-c3nc([C@H]4CC[C@H](C(=O)O)CC4)n4ncnc(N)c34)[nH]c12
Outline: as §1

[9] = compound: CS(=O)(=O)CCNCc1ccc(-c2ccc3ncnc(Nc4ccc(OCc5cccc(F)c5)c(Cl)c4)c3c2)o1 [lapatinib]
Outline: as §1

[10] = compound: CS(=O)(=O)N1CCN(Cc2cc3nc(-c4cccc5[nH]ncc45)nc(N4CCOCC4)c3s2)CC1 [pictilisib]
Outline: as §1

Measured: log2 fold change

WDR43 (UniProt Q15061)
inactive: [1] -0.014 | [2] -0.019 | [3] -0.017 | [4] -0.072 | [5] -0.061 | [6] 0.058 | [7] -0.006 | [8] 0.042 | [9] -0.025 | [10] 0.06

VPS52 (UniProt Q8N1B4)
inactive: [1] -0.003 | [2] 0.017 | [3] 0.044 | [4] 0.088 | [5] -0.069 | [6] 0.058 | [7] 0.014 | [8] -0.022 | [9] -0.043 | [10] -0.02

VEZF1 (UniProt Q14119)
inactive: [1] -0.118 | [2] 0.11 | [3] -0.154 | [4] 0.11 | [5] -0.172 | [6] 0.046 | [7] 0.004 | [8] -0.07 | [9] 0.1 | [10] -0.107

WDR12 (UniProt Q9GZL7)
inactive: [1] 0.045 | [2] -0.008 | [3] -0.005 | [4] -0.008 | [5] 0.02 | [6] 0.038 | [7] 0 | [8] 0.012 | [9] -0.017 | [10] 0.094

WARS2 (UniProt Q9UGM6)
inactive: [1] -0.072 | [2] -0.089 | [3] -0.034 | [4] 0.014 | [5] -0.025 | [6] 0.062 | [7] -0.035 | [8] 0 | [9] -0.127 | [10] 0.037

VRK2 (UniProt Q86Y07)
inactive: [1] -0.009 | [2] 0.075 | [3] 0 | [4] -0.066 | [5] 0.042 | [6] 0.003 | [7] 0.018 | [8] -0.027 | [9] -0.003 | [10] -0.06

WASL (UniProt O00401)
inactive: [1] 0.04 | [2] -0.003 | [3] -0.068 | [4] -0.086 | [5] 0.013 | [6] 0.027 | [7] 0.175 | [8] -0.015 | [9] 0.033 | [10] 0.049

VPS26C (UniProt O14972)
inactive: [1] 0.057 | [2] -0.124 | [3] 0.129 | [4] -0.081 | [5] 0.078 | [6] 0.079 | [7] -0.086 | [8] -0.052 | [9] 0.006 | [10] -0.016

WARS (UniProt P23381)
inactive: [1] 0.007 | [2] -0.04 | [3] 0.011 | [4] 0.032 | [5] -0.044 | [6] 0.009 | [7] -0.009 | [8] 0.029 | [9] -0.051 | [10] 0.04

WDR92 (UniProt Q96MX6)
inactive: [1] 0.049 | [2] -0.004 | [3] 0.034 | [4] 0.011 | [5] -0.069 | [6] -0.012 | [7] -0.051 | [8] -0.143 | [9] 0.039 | [10] -0.08

VPS8 (UniProt Q8N3P4)
inactive: [1] 0.092 | [2] 0.001 | [3] 0.043 | [4] -0.03 | [5] 0.133 | [6] 0.01 | [7] 0.076 | [8] -0.025 | [9] 0.046 | [10] 0.055

WASHC4 (UniProt Q2M389)
inactive: [1] -0.014 | [2] 0.035 | [3] -0.008 | [4] -0.002 | [5] -0.039 | [6] 0.163 | [7] 0.19 | [8] -0.029 | [9] -0.081 | [10] 0.097

VPS50 (UniProt Q96JG6)
inactive: [1] 0.023 | [2] -0.021 | [3] 0.028 | [4] -0.157 | [5] 0.019 | [6] 0.012 | [7] 0.007 | [8] -0.027 | [9] -0.006 | [10] -0.003

VRK3 (UniProt Q8IV63)
inactive: [1] 0.005 | [2] -0.033 | [3] -0.03 | [4] 0.02 | [5] 0.084 | [6] -0.006 | [7] 0.013 | [8] -0.021 | [9] 0.063 | [10] 0.288

WDR5 (UniProt P61964)
inactive: [1] -0.004 | [2] 0.199 | [3] -0.067 | [4] 0.126 | [5] -0.069 | [6] -0.018 | [7] -0.063 | [8] -0.108 | [9] 0.003 | [10] -0.036

VDAC2 (UniProt P45880)
inactive: [1] -0.013 | [2] -0.005 | [3] -0.005 | [4] -0.022 | [5] -0.032 | [6] -0.015 | [7] -0.008 | [8] 0.044 | [9] -0.009 | [10] -0.01

WASHC5 (UniProt Q12768)
inactive: [1] -0.059 | [2] -0.017 | [3] 0.043 | [4] 0.034 | [5] -0.088 | [6] 0.083 | [7] 0.044 | [8] -0.021 | [9] -0.024 | [10] -0.05

VPS33B (UniProt Q9H267)
inactive: [1] 0.027 | [2] 0.011 | [3] 0.026 | [4] -0.036 | [5] -0.116 | [6] -0.046 | [7] 0.118 | [8] -0.147 | [9] 0.011 | [10] -0.035

WDR61 (UniProt Q9GZS3)
inactive: [1] -0.121 | [2] -0.031 | [3] 0.008 | [4] -0.05 | [5] -0.082 | [6] 0.14 | [7] -0.035 | [8] 0.065 | [9] -0.104 | [10] 0.042

WDR82 (UniProt Q6UXN9)
inactive: [1] -0.067 | [2] 0.144 | [3] 0.015 | [4] 0.047 | [5] -0.051 | [6] 0.002 | [7] -0.008 | [8] -0.018 | [9] 0.037 | [10] 0.015

VMP1 (UniProt Q96GC9)
inactive: [1] -0.041 | [2] -0.075 | [3] 0.02 | [4] -0.078 | [5] -0.15 | [6] -0.081 | [7] -0.005 | [8] 0.065 | [9] 0.022 | [10] 0.002

WIPF1 isoform 3 (UniProt O43516)
inactive: [1] -0.08 | [2] 0.162 | [3] -0.052 | [4] 0.024 | [5] 0.18 | [6] -0.111 | [7] -0.034 | [8] -0.055 | [9] 0.004 | [10] 0.078

VKORC1L1, A0A3B3ISV4
inactive: [1] -0.163 | [2] -0.006 | [3] 0.004 | [4] 0.003 | [5] -0.03 | [6] -0.16 | [7] 0.017 | [8] 0.042 | [9] -0.037 | [10] 0.059

VPS4A (UniProt Q9UN37)
inactive: [1] 0.063 | [2] -0.049 | [3] 0.028 | [4] -0.038 | [5] -0.02 | [6] 0.032 | [7] -0.02 | [8] 0.013 | [9] -0.019 | [10] 0.024

VPS4B (UniProt O75351)
inactive: [1] 0.011 | [2] -0.009 | [3] 0.002 | [4] -0.07 | [5] 0.05 | [6] 0.027 | [7] -0.004 | [8] -0.005 | [9] -0.034 | [10] 0.005

WDR4 (UniProt P57081)
inactive: [1] 0.017 | [2] -0.022 | [3] 0.004 | [4] -0.096 | [5] -0.059 | [6] -0.058 | [7] -0.01 | [8] 0.049 | [9] 0.206 | [10] 0.131

WIZ isoform 3 (UniProt O95785)
inactive: [1] 0.036 | [2] -0.029 | [3] 0.134 | [4] -0.126 | [5] -0.023 | [6] 0.11 | [7] 0.008 | [8] -0.001 | [9] 0.055 | [10] 0.069

WDR11 (UniProt Q9BZH6)
inactive: [1] -0.069 | [2] 0.027 | [3] -0.058 | [4] -0.124 | [5] -0.062 | [6] 0.104 | [7] -0.016 | [8] 0.094 | [9] -0.094 | [10] 0.094
